In the experiment the target is IPO9 (mouse (endogenous in EPCAM− skin SCC tumour cells)) (UniProt Q91YE6). The experiment can be described thus: co-IP; anti-IPO9 (A305-475A, Bethyl) or rabbit IgG control immunoprecipitation from 1 mg precleared lysate of EPCAM− cells expressing HA-tagged RHOJ, 12 h after cisplatin/5FU; Dynabeads Protein G; washes in NETN buffer with 900 mM NaCl; western blot with anti-HA. A general note: In western blotting, separated proteins are transferred to a membrane and probed.

The chains behind the UniProt entries cited, without tags or fusion partners.
UniProt Q91YE6: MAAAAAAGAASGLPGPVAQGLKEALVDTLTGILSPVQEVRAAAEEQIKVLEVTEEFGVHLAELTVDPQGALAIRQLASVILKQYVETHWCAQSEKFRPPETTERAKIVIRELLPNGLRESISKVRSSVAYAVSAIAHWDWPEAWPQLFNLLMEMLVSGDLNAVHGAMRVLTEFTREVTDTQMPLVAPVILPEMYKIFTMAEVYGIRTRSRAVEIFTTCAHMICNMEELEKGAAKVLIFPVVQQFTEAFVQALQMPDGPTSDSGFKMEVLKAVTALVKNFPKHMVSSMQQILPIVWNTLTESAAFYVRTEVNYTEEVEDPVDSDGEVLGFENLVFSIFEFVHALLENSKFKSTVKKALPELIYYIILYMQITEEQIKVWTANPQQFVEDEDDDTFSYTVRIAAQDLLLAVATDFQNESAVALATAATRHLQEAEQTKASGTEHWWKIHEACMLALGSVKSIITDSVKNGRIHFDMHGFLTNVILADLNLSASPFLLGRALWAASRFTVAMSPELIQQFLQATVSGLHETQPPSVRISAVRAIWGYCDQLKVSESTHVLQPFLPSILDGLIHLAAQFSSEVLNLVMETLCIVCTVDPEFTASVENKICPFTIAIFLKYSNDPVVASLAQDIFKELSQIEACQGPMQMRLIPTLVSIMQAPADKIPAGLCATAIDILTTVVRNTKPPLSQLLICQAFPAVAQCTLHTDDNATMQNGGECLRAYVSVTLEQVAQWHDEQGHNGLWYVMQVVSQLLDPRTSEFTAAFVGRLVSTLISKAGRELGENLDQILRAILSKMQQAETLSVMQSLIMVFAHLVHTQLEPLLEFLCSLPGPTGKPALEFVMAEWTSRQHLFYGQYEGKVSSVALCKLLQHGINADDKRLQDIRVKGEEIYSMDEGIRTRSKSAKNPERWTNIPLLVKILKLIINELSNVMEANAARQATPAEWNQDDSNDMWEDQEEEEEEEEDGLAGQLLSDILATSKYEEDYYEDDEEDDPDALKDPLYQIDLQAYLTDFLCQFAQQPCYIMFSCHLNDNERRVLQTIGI
UniProt Q9ER71: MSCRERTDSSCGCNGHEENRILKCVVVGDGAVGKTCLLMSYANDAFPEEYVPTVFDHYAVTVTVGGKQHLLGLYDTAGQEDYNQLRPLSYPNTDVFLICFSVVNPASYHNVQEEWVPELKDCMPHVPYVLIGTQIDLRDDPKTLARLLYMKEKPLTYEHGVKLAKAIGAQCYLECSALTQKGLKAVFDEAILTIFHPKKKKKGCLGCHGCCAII

Results are given in words; binding and its absence hold for the method and conditions named. Binding seen in cells or lysates may run through a third protein. Some entries that bind do so weakly or less than the wild type.

Turning to “3HA-tagged RHOJ (from UniProt Q9ER71 1-214)”, the binding result is listed as “binds”.

Source of the values: PMC10076223.
